# Assay results taken from PMC3542428, “Functional Insights from the Crystal Structure of the N-Terminal Domain of the Prototypical Toll Receptor” (Structure(London, England:1993), 2013).
# These are yes or no findings as the source states them, for the method shown. Sequences can lack the tags named with a protein.
# Target: TollN13-VLR (Toll N-terminal region up to LRR13 fused to VLR B.61 residues 133-201) (Drosophila melanogaster | hagfish) (UniProt P08953+Q4G1L2)
# Test: SEC; gel filtration of the Toll-VLR constructs alone and mixed with Spz C-106 (TollN6-VLR and C-106 in equimolar concentrations); both purified
binder,measurement,value
"TollN13-VLR (Toll N-terminal region up to LRR13 fused to VLR B.61 residues 133-201) (domain or fragment, UniProt P08953 28-397; Q4G1L2 133-201) SFGRDACSEMSIDGLCQCAPIMSEYEIICPANAENPTFRLTIQPKDYVQIMCNLTDTTDYQQLPKKLRIGEVDRVQMRRCMLPGHTPIASILDYLGIVSPTTLIFESDNLGMNITRQHLDRLHGLKRFRFTTRRLTHIPANLLTDMRNLSHLELRANIEEMPSHLFDDLENLESIEFGSNKLRQMPRGIFGKMPKLKQLNLWSNQLHNLTKHDFEGATSVLGIDIHDNGIEQLPHDVFAHLTNVTDINLSANLFRSLPQGLFDHNKHLNEVRLMNNRVPLATLPSRLFANQPELQILRLRAELQSLPGDLFEHSTQITNISLGDNLLKTLPATLLEHQVNLLSLDLSNNRLTHLPDSLFAHTTNLTDLRLNQLKSVPDGIFDRLTSLQKIWLHTNPWDCSCPRIDYLSRWLNKNSQKEQGSAKCSGSGKPVRSIICPTT",binding,no binding
